# About 5,400 (1.8%) of roughly 300,000 compounds were called active. The shares of active, inactive and inconclusive entries below differ from those in the screen. Calls follow the shape of the full dose curve; tested in HEK293 cells. Potencies beside an inconclusive call are fits to weak or partial responses and may not hold up.
# Test: qHTS for inhibitors of binding or entry into cells for Marburg Virus
# Details: Marburg virus pseudotyped entry inhibition, cell reporter; activity change, negative = inhibition: at 37.8 µM (top of the series) unless noted
# % is scaled to controls: 0 for no effect and ±100 for the full control effect; potency is read from the fitted curve at half-maximal effect.
Compound,Potency,"activity change, negative = inhibition"
Cc1cccc(OCCSc2nnc(-c3cccs3)o2)c1,inactive,–
CC(/C=C/c1ccccc1)=N/NC(=O)CNC(=O)c1ccc2c(c1)OCO2,inactive,–
O=S(=O)(c1cccs1)N1CCN(CCOc2ccccc2)CC1,"inconclusive: 11.2 µM [inhibitor, partial curve, poor fit]",–
Cn1c(CNC(=O)c2cccs2)nnc1SCC(=O)Nc1ccc(Cl)cc1,"inconclusive: 7.3 µM [inhibitor, partial curve, poor fit]",–
O=C(Nc1ccccc1C(=O)Nc1cccnc1)c1ccccc1,"inconclusive: 5.62 µM [inhibitor, single point]",–
Cc1ccccc1C(=O)N1CCN(c2ccc(NC(=O)c3ccco3)cc2)CC1,"inconclusive: 2.24 µM [inhibitor, partial curve, poor fit]",–
CSc1ccc(CN2CCN(C(=O)CC(C)C)CC2)cc1,"inconclusive: 5.62 µM [activator, single point]",–
COc1ccc(C(=O)n2nc(C)cc2C)cc1OC,"inconclusive: 1.64 µM [inhibitor, partial curve]",–
CCCCN(C(=O)C1CC(=O)N(CCc2ccc(OC)c(OC)c2)C1)c1c(N)n(CCCC)c(=O)[nH]c1=O (centres undefined),"inconclusive: 31.6 µM [activator, single point]",–
CC(C)c1ccc(/C=N/NC(=O)CCNC(=O)c2ccccc2)cc1,inactive,–
Cc1cc(=O)oc2cc(NC(=O)CCOc3ccccc3)ccc12,inactive,–
O=C1CN(C(=O)CSc2ccccn2)c2ccccc2N1,"inconclusive: 7.08 µM [activator, partial curve]",–
Clc1ccccc1OCCSc1nnc(-c2cccs2)o1,"inconclusive: 5.01 µM [activator, single point]",–
CCN(CC)C(=O)COC(=O)c1ccc(O)cc1,"inconclusive: 0.092 µM [inhibitor, full curve, poor fit]",–
CC(=O)Oc1cc(C(=O)OCC(=O)N2CCc3ccccc3C2)cc(OC(C)=O)c1OC(C)=O,"inconclusive: 0.891 µM [inhibitor, full curve, poor fit]",–
CCn1cc(CNC(=O)c2cc(-c3ccc(C)cc3)nc3ccc(Br)cc23)c(C)n1,inactive,–
COc1ccc(CCN(C)C(=O)c2cc(-c3ccc(C)cc3)nc3ccccc23)cc1OC,"inconclusive: 14.1 µM [inhibitor, single point]",–
COc1ccc(C(=O)NCC(C)C)c(OC)c1,inactive,–
Cc1cc(C)c2cc(CN(CC3CCCO3)C(=S)NCc3ccco3)c(=O)[nH]c2c1 (centres undefined),inactive,–
CCS(=O)(=O)N1CCc2cc(C(=O)NCc3ccccc3OC)ccc21,inactive,–
COc1cccc(-c2nc3ccccc3s2)c1,"inconclusive: 14.1 µM [inhibitor, single point]",–
CS(=O)(=O)N1CCc2cc(S(=O)(=O)Nc3ccc4c(c3)OCCO4)ccc21,"inconclusive: 0.651 µM [inhibitor, full curve, poor fit]",–
CC(CCc1ccco1)NC(=O)CSc1cc(=O)n(C)c2ccccc12 (centres undefined),inactive,–

Compound,Potency,"activity change, negative = inhibition"
Cc1nn(C)c(Cl)c1NC(=O)OCc1ccc(Cl)cc1Cl,"inconclusive: 4.47 µM [inhibitor, full curve, poor fit]",–
CCC(=O)N1CCN(c2cc(NCC3CCCO3)c(F)cc2[N+](=O)[O-])CC1 (centres undefined),"inconclusive: 14.1 µM [activator, single point]",–
COc1ccc(NC(=S)NC(NC(=O)C(C)C)C(Cl)(Cl)Cl)c([N+](=O)[O-])c1 (centres undefined),"inconclusive: 16.4 µM [inhibitor, partial curve, poor fit]",–
O=C(Cn1cc(C(=O)C2CC2)c2ccccc21)Nc1ccc(F)cc1,"inconclusive: 35.5 µM [inhibitor, partial curve, poor fit]",–
O=C(c1ccccc1-c1nc2ccccc2[nH]1)N1CCCCC1,"inconclusive: 25.1 µM [activator, single point]",–
COc1cc(C(=O)NCC2(N(C)C)CCCCC2)ccc1OCc1ccccc1,"inconclusive: 11.2 µM [inhibitor, partial curve, poor fit]",–
Cn1c(=O)c(C(=O)CN2CCCCCC2)c(N)n(Cc2ccccc2)c1=O,"inconclusive: 1 µM [activator, partial curve, poor fit]",–
COc1ccc(OC)c(C(=O)CC2OC(=O)c3ccccc32)c1 (centres undefined),"inconclusive: 1.16 µM [inhibitor, full curve, poor fit]",–
COc1ccc(/C=N/NC(=O)c2cccc([N+](=O)[O-])c2)cc1OC(=O)c1ccccc1,"inconclusive: 5.62 µM [inhibitor, single point]",–
CCOC(=O)c1c(NC(=O)CSc2nnc3c(n2)[nH]c2ccc(F)cc23)sc(C(C)=O)c1C,inactive,–
CCCCCCCC(=O)OCC(O)CO (centres undefined),inactive,–
COc1ccc(C)cc1-n1nnnc1SCc1nc2ccccc2s1,"inconclusive: 0.708 µM [activator, partial curve, poor fit]",–
Cc1ccc(N2C(=O)CC(c3ccccc3F)C3=C2COC3=O)cc1Cl (centres undefined),inactive,–
Fc1ccc(Br)cc1C1C=C(c2ccc(Br)s2)Nc2ncnn21 (centres undefined),"inconclusive: 0.251 µM [inhibitor, full curve, poor fit]",–
Cc1cccc(NC(=O)CC23CC4CC(C2)CC(n2nnc(C)n2)(C4)C3)c1,"inconclusive: 14.1 µM [inhibitor, partial curve, poor fit]",–
CCc1ccc(N(CC)C(=O)Cc2c(C(=O)O)n(C)c3ccccc23)cc1,inactive,–
Cc1ccc2[nH]c3c(c2c1)CCCC3NC(=O)CCl (centres undefined),active: 5.62 µM,–
CN(C)C=NC(=O)c1cc(C(=O)c2ccc(C(C)(C)C)cc2)c[nH]1,"inconclusive: 14.1 µM [inhibitor, single point]",–
COc1ccc(NC(=O)COc2cc(C)cc(C)c2)cc1S(=O)(=O)N1CCCCC1,"inconclusive: 6.31 µM [inhibitor, partial curve, poor fit]",–
CCN(CCNC(=O)C1CCN(Cc2nc(-c3ccc(Cl)cc3)oc2C)CC1)c1ccccc1,"inconclusive: 17.8 µM [inhibitor, partial curve, poor fit]",–
COc1ccn(C2CCCCO2)c(=O)n1 (centres undefined),inactive,–
COc1cc(OC)cc(C(=O)Nc2cc3c(cc2N2CCCCC2)n(C)c(=O)n3C)c1,inactive,–
C[C@]12CC[C@H](O)CC1=CCC1C2CC[C@@]2(C)C1CC[C@@H]2NC(=O)[C@@H](N)Cc1ccccc1 (some centres undefined),"inconclusive: 25.1 µM [inhibitor, single point]",–

Compound,Potency,"activity change, negative = inhibition"
Cc1nc(CNC(=O)c2cc(COc3ccc(F)cc3Cl)on2)cs1,"inconclusive: 11.2 µM [inhibitor, partial curve, poor fit]",–
O=C(NCc1ccc(Cl)cc1)c1cc2c(s1)-c1ccccc1SC2,"inconclusive: 0.316 µM [inhibitor, full curve, poor fit]",–
COC(=O)N[C@H](C(C(=O)OC)=C(C)NCc1ccccc1)c1ccc(Cl)cc1,inactive,–
Clc1ccsc1-c1ccnc(-n2cccc2)n1,"inconclusive: 35.5 µM [activator, single point]",–
Cc1ccc(N2CCN(C(=O)c3cn(CC4CCCCC4)nn3)C(C)C2)cc1 (centres undefined),"inconclusive: 1.41 µM [activator, partial curve, poor fit]",–
Cc1noc(C)c1COC(=O)c1cc(C)n(-c2ccccc2)c1C,inactive,–
CC(=O)c1cnn(-c2cc(Oc3cccc(C)c3)ncn2)c1C,"inconclusive: 1.26 µM [inhibitor, single point]",–
Cn1c(SCc2ccccc2F)nnc1-c1cnccn1,"inconclusive: 1.16 µM [activator, partial curve]",–
COc1cc(C=NNC(=O)c2ccccc2-n2cccc2)ccc1O,"inconclusive: 12.6 µM [inhibitor, partial curve, poor fit]",–
Cc1cc(-c2ccccc2)n(-c2cc(N/N=C/c3ccccc3O)ncn2)n1,active: 8.91 µM,–
CC(C)C(=O)Nc1nnc(CCc2nnc(NC(=O)C(C)C)s2)s1,inactive,–
Cc1cccc(C)c1NC(=S)N1CCC(N(C)CC2CCCO2)CC1 (centres undefined),inactive,–
CN1CCCN(C(=O)c2ccccc2Cl)CC1,inactive,–
C=CCn1c(O)c(C(CC)=NCc2cc(OC)cc(OC)c2)c(=O)[nH]c1=O,"inconclusive: 20 µM [inhibitor, single point]",–
COc1ccc(OC)c(NC(=O)c2cc(S(=O)(=O)N(C)C)ccc2N2CCCC2)c1,–,inconclusive: 26.5% [activator]
Cc1cc(C)c2c(c1)NC(=O)C2(O)c1c[nH]c2ccccc12 (centres undefined),"inconclusive: 35.5 µM [inhibitor, single point]",–
Cc1ccc2c(c1)cc1c(=O)n(Cc3cccc(Cl)c3)nc(C)n12,inactive,–
Cc1[nH]c2ccc(F)cc2c1CCN(Cc1cccnc1)C(=S)NC(C)(C)C,"inconclusive: 35.5 µM [inhibitor, single point]",–
CCN(CC(=O)NCc1ccc(F)cc1)CC(=O)Nc1ccccc1-c1ccccc1,"inconclusive: 11.2 µM [inhibitor, single point]",–
Cc1ccc(NC(=O)CSc2nnc(-c3ccoc3C)n2CCCN(C)C)cc1Cl,"inconclusive: 12.6 µM [inhibitor, partial curve, poor fit]",–
CCCc1nnc(SCC(=O)Nc2cccc(C(F)(F)F)c2)o1,inactive,–
O=C(NCc1ccc2c(c1)OCO2)c1ccc2c(c1)N(Cc1c(F)cccc1Cl)C(=O)CS2,"inconclusive: 29.1 µM [inhibitor, single point]",–
CNC(=S)NNC(=O)c1ccc(=O)n(Cc2ccc(Cl)cc2Cl)c1,"inconclusive: 2.82 µM [activator, partial curve, poor fit]",–

# One compound at a time, as listed above.
# `Cc1ccc(N2CCN(C(=O)c3cn(CC4CCCCC4)nn3)C(C)C2)cc1` (centres undefined) as listed: Potency: inconclusive: 1.41 µM [activator, partial curve, poor fit]
# `Cn1c(SCc2ccccc2F)nnc1-c1cnccn1` as listed: Potency: inconclusive: 1.16 µM [activator, partial curve]
# `CNC(=S)NNC(=O)c1ccc(=O)n(Cc2ccc(Cl)cc2Cl)c1` as listed: Potency: inconclusive: 2.82 µM [activator, partial curve, poor fit]

# Reference: PubChem BioAssay AID540276 (National Center for Advancing Translational Sciences (NCATS), 2011)
